# Results taken from PubChem BioAssay AID2099 (Broad Institute, 2009).
# By UniProt entry, the sequences of proteins in these tests, tags left out. Residues count along the entry.
# UniProt Q9H3R0, 1-420 limits assumed: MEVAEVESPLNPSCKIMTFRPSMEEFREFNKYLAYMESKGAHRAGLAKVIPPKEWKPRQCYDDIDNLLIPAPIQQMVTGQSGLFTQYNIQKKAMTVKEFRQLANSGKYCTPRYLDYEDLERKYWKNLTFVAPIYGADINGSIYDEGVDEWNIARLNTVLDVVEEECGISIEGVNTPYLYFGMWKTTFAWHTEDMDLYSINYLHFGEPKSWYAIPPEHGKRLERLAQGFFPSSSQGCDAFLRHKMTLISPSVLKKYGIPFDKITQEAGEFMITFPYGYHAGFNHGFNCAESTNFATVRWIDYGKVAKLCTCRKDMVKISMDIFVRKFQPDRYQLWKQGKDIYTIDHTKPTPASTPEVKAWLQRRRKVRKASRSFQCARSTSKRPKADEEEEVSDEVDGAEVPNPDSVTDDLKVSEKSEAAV
# “And” between values parts separate entries of the source, which are not always exact repeats. Equal entries are not always repeated. Among all 330,000 compounds or so, about 230 (0.07%) were called active. Inconclusive results, whose numbers are uncertain, are shown with a selection of clear calls.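 How the source made its calls: active means more than half of a compound's replicate wells show inhibition beyond 50%, single wells judged on their own value; inconclusive means some, but no more than half, of replicates pass 50% inhibition; inactive means no replicate passes 50% inhibition.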
# Biological target: Lysine-specific demethylase 4C (Homo sapiens) (UniProt Q9H3R0)
# Experiment: inhibitors of GASC-1 histone demethylase, primary screen, biochemical, fluorescence, DELFIA europium (AID 2099);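 further: signal counts dimethyl H3K9 product captured on neutravidin plate; 0% = median of DMSO wells and 100% = 0.3 times that DMSO median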
# Details: GST-JMJD2C(1-420) H3K9me3 demethylation, at 2.35 µM, stronger effect = higher value
row,SMILES,inhibition
1,COc1ccc(C(=O)Nc2ccccc2NC(=O)c2ccc(OC)cc2)cc1,inactive: 4.61%
2,Cc1ccc(N2CC(C)Cn3c2nc2c3c(=O)n(CC(=O)OCc3ccccc3)c(=O)n2C)cc1C (stereo unspecified),inconclusive: -52.5%
3,Cc1ccc(C(=O)OCC(=O)NC2CCS(=O)(=O)C2)c(C)c1 (stereo unspecified),inactive: 0.928%
4,COc1ccccc1Nc1nc(-c2ccccc2O)nc2ccccc12,inconclusive: -54.7%
5,O=C(CN1CCN(C(=O)c2ccco2)CC1)Nc1ccc(Cl)c(S(=O)(=O)N2CCOCC2)c1,inconclusive: -122%
6,CN1CCN(c2cc3c(c4c2[nH]c2ccccc24)C(=O)CC(C)(C)C3)CC1,inactive: 6.97%
7,Cc1ccc(C)c(N2CCN(S(=O)(=O)c3ccc4c(c3)oc(=O)n4C)CC2)c1,inconclusive: -105%
8,CCCCCCCCN1[C@@H](CC(=O)OCC)c2cc(F)ccc2S1(=O)=O,inactive: -5.92%
9,Cc1cccc(OCC(=O)NCC(=O)N=Nc2c(O)[nH]c3ccc([N+](=O)[O-])cc23)c1,inconclusive: -119%
10,Cn1c(CNC(=O)CNC(=O)c2ccc(C(C)(C)C)cc2)cc(=O)n(C)c1=O,inconclusive: -85.1%
11,CCOc1ccc(C2=NNC(c3cccs3)=Nc3ccc(OC)cc32)cc1OCC,inactive: 7.18%
12,O=c1[nH]cnc2c1c(-c1ccccc1)cn2-c1ccccc1,active: 62.2%
13,O=C(O)CCC1c2cc3c4cc2OC2Oc5cc6c(cc51)C(CCC(=O)O)c1cc5c7cc1OC(O6)c1cc6cc(c1)Oc1cc(cc(C(=O)O)c1)Oc1cc8cc(c1)C(Oc1cc(c(cc1C5CCC(=O)O)C3CCC(=O)O)OC(O4)c1cc(cc(c1)Oc1cc(cc(C(=O)O)c1)O8)Oc1cc(cc(C(=O)O)c1)Oc1cc(cc2c1)Oc1cc(cc(C(=O)O)c1)O6)O7 (stereo unspecified),active: 101%
14,CCOC(=O)N1CCN(C(=O)N2CCOCC2)CC1,inconclusive: -62.5%
15,CCC(Sc1ncnc2sc(C)c(C)c12)C(=O)OC (stereo unspecified),inconclusive: -205%
16,Cc1ccc(Oc2coc3cc(OC(=O)c4cccs4)ccc3c2=O)cc1,inactive: 9.85%
17,CCOC(=O)c1[nH]c2ccccc2c1NC(C)=O,inactive: 3.17% and inactive: -1.57%
18,COc1ccc(C(=O)CSc2cc(C)nc(SCC(=O)c3ccc(C)cc3)n2)cc1,inactive: 1.7%
19,COc1ccccc1/C=C/c1ccc2cccc(O)c2n1,inactive: -3.8%
20,CC(NCC(O)COCCC12CC3CC(CC(C3)C1)C2)c1ccccc1 (stereo unspecified),inconclusive: -55.3%
21,COc1ccc(C(=O)NC(=S)N2CCCCC2c2cccnc2)cc1OC (stereo unspecified),inconclusive: -180%
22,Cc1nnc2c(N(C)S(=O)(=O)c3ccccc3)nc3ccccc3n12,inactive: 15.4%

row,SMILES,inhibition
1,Cc1ccc(CN2CCC(Oc3cccc(C(=O)N(C)CCN(C)C)c3)CC2)cc1C,inconclusive: -73.9%
2,COc1cccc(-c2cc3nc(-c4ccccc4)cc(=O)n3[nH]2)c1,inconclusive: -52.4%
3,CCC1Sc2ccccc2N(CC(=O)NCCC2=CCCCC2)C1=O (stereo unspecified),inconclusive: -148%
4,O=C(CSc1ccccc1)NNC(=O)c1ccccc1O,inconclusive: -55.1%
5,Cc1ccc2cc3c(NC(=O)c4ccco4)nn(C)c3nc2c1,inactive: -0.131%
6,CC(=O)C(Sc1nc(N2CCOCC2)nc(N2CCOCC2)n1)C(=O)Nc1ccccc1 (stereo unspecified),active: 69.8%
7,CC1CC(NC(=O)/C=C/C(=O)O)CC(C)(C)C1 (stereo unspecified),inactive: 2.06%
8,COc1cccc2c(=O)c(SC(F)(F)C(F)C(F)(F)F)c(C)[nH]c12 (stereo unspecified),inconclusive: -97.3%
9,CN(C)CCN(Cc1cccs1)c1ccccn1,inconclusive: -28%
10,Cc1ccccc1S(=O)(=O)N1[C@@H](c2ccccc2)C(C(=O)O)=CC[C@H]1c1ccc(Cl)cc1,inactive: -8.41%
11,COc1cccc(-n2cc(C(=O)O)c3ccccc3c2=O)c1,inconclusive: -130%
12,COc1cc(C)c(Br)cc1S(=O)(=O)N1CCCC1,inconclusive: -57.9%
13,O=C1CCc2cc(S(=O)(=O)Nc3ccccc3)cc3c2N1CC3,inconclusive: -34.3%
14,CCOc1ccc(OC(=O)c2cccc(S(=O)(=O)N3CCN(C)CC3)c2)cc1,inconclusive: -119%
15,CCN(CC)CC(O)Cn1c(-c2ccccc2Cl)nc2ccccc21 (stereo unspecified),inconclusive: -57%
16,COc1ccc(-c2c(NC(=O)c3ccco3)oc3c(C)cccc3c2=O)cc1,inconclusive: -102%
17,COc1c2c(cc3oc(=O)c4c5ccc(O)cc5oc4c13)OC(C)(C)CC2,inactive: 7.01%
18,COc1ccc(Oc2nc3c(C)cccn3c(=O)c2/C=C(\C#N)C(N)=O)cc1,inactive: -4.1%
19,O=C(Cc1ccc(Cl)cc1)Nc1ccncc1,inactive: 10.9%
20,COC(=O)C1=C[C@@H](C(=O)OC)[C@@H]2C3=C(C(=O)C2(C)C)[C@H](C)n2c(=O)n(-c4ccccc4)c(=O)n2[C@@H]3C1,inactive: -9.24%
21,COc1cccc(-c2cc(C(=O)NCCCn3ccnc3)no2)c1,inconclusive: -68%
22,Cc1cc(-c2nnc(SCc3cccnc3)o2)no1,inconclusive: -139%

row,SMILES,inhibition
1,CCc1ccccc1N(C(=O)c1cccs1)C1C=CS(=O)(=O)C1 (stereo unspecified),inconclusive: -111%
2,O=C(O/N=C(\c1ccccc1)c1ccccn1)c1ccc(Cl)c(Cl)c1,inconclusive: -83.7%
3,COc1ccc(CNC(=O)CNS(=O)(=O)c2cccs2)cc1,inactive: 0.0452%
4,Cc1c(NC(=O)CSc2nc3ccccc3[nH]2)c(=O)n(-c2ccccc2)n1C,inconclusive: -47.1%
5,COc1ccc(CNC(=O)CSc2nnnn2Cc2ccccc2)cc1,active: 51.7%
6,Clc1cccc(Cl)c1Cn1c(-c2cccnc2Cl)nc2ccccc21,active: 52.1%
7,CC1CC2(C)Oc3ccccc3C3OCC1(CO)C(C)C32 (stereo unspecified),inconclusive: -32.9%
8,Cc1c(Cl)ccc2sc(N3CCN(C(=O)C4=COCCO4)CC3)nc12,inconclusive: -42.9%
9,CS(=O)(=O)c1ccc(C(=O)NCCN2C(=O)S/C(=C\c3cccnc3)C2=O)cc1[N+](=O)[O-],inactive: 16.5%
10,Cn1c(=O)n(C)c2cc(/C=N/NC(=O)c3ccc(Cl)cc3)ccc21,inactive: -1.79%
11,CCCCCCCSc1nnc(-c2ccccc2N)c(=O)[nH]1,inactive: -7.49%
12,CCOCCCNC(=O)c1c[nH]c2ccc(S(=O)(=O)Nc3cccc(OC)c3)cc2c1=O,inconclusive: -262%
13,CC(=O)OCC(=O)Nc1ccc(N=Nc2ccccc2)cc1,inactive: -0.333%
14,CCCCNC1=CC(=O)C(=O)c2ccccc21,inactive: -3.34%
15,O=C(Cc1cc(=O)[nH][nH]1)N/N=C/c1cccc(Cl)c1Cl,inconclusive: -61.9%
16,Cc1cc(OC(C)C(=O)NCC(O)c2ccccc2)c2c(C)cc(=O)oc2c1 (stereo unspecified),inconclusive: -88.1%
17,Cc1ccc(-c2csc(N3C(=N)SCC3=O)n2)cc1,inactive: 2.93%
18,COC(=O)c1ccc(-c2ccco2)n1Cc1cccc(C)c1,inconclusive: -262%
19,Fc1cccc2sc(N3CCCCC3)nc12,inactive: -4.34%
20,Clc1cccc(Cl)c1Cn1ccc(C2CC2)n1,inactive: 0.47%
21,O=C(Oc1ccccc1F)c1ccc2c(=O)n3c(nc2c1)CCC3,inconclusive: -52.2%
22,O=C(NCC(c1ccco1)N1CCc2ccccc21)c1cccc(F)c1 (stereo unspecified),inconclusive: -37.5%

row,SMILES,inhibition
1,O=C(NNC(=O)c1cnccn1)c1cccc([N+](=O)[O-])c1,inconclusive: -147%
2,O=C(c1ccc(Cl)cc1)C1C2C(=O)N(c3ccccc3)C(=O)C2C2CCCN21 (stereo unspecified),inactive: -12.2%
3,CS(=O)(=O)Nc1ccc(C(=O)Nc2ccc(S(=O)(=O)N3CCCC3)cc2)cc1,inactive: 6.33%
4,Cc1cc(Cl)ccc1NC(=O)Nc1c(C)n(-c2ccccc2)c(=O)n1C,inconclusive: -71.6%
5,O=C(NCCC(=O)N(CCc1ccccc1)Cc1ccccc1)c1ccc([N+](=O)[O-])cc1,inconclusive: -86.6%
6,NC(=O)COc1cccc2cccnc12,active: 73.6%
7,COc1ccc(Nc2nc(-c3ccccc3)cs2)cc1,inconclusive: -121%
8,COc1ccccc1-c1ccc(=O)n(CC(=O)Nc2ccc(C(=O)N3CCCC3)cc2)n1,inconclusive: -63.2%
9,Cc1onc(-c2ccccc2Cl)c1C(=O)Nc1cccc(-c2nc3ncccn3c2C)c1,inconclusive: -117%
10,CCOc1cc(NC(=S)NCCCN2CCOCC2)c(OCC)cc1NC(=O)C1CCCCC1,inconclusive: -55.4%
11,Cc1ccc2nc(SC(C)C(=O)N3CC(C)OC(C)C3)[nH]c2c1 (stereo unspecified),inconclusive: -75%
12,Cc1cc(=O)oc2c(C)c(OCC(=O)N3CCN(C(=O)C4COc5ccccc5O4)CC3)ccc12 (stereo unspecified),inconclusive: -180%
13,CCC(CC)C(=O)Nc1nnc(S(=O)(=O)N2c3ccccc3CC2C)s1 (stereo unspecified),inactive: -13.8%
14,CC12CCC(=O)N1C(C(=O)Nc1nc3ccc(Cl)cc3s1)CS2 (stereo unspecified),inactive: -3.15%
15,CCC(=O)Nc1ccc(C(=O)CSc2nnc(-c3cccnc3)o2)cc1,inconclusive: -283%
16,O=C(/C=C/c1ccccc1)c1ccccc1,inconclusive: -51%
17,CCN(c1cccc(C)c1)S(=O)(=O)c1cc2c3c(c1)CCN3C(=O)CC2,inconclusive: -60.8%
18,N#CCC(=O)N/N=C/c1c2ccccc2cc2ccccc12,inactive: -3.41%
19,Cc1ccc(S(=O)(=O)N2CCOCC2)cc1C(=O)NC1CCCC1,inconclusive: -59.2%
20,COc1ccccc1NC(=O)c1ccc(CSc2ccccc2)o1,inconclusive: -53.6%

# 6 of the compounds above, with tabs:
row	SMILES	inhibition
12	Cc1cc(=O)oc2c(C)c(OCC(=O)N3CCN(C(=O)C4COc5ccccc5O4)CC3)ccc12 (stereo unspecified)	inconclusive: -180%
13	CCC(CC)C(=O)Nc1nnc(S(=O)(=O)N2c3ccccc3CC2C)s1 (stereo unspecified)	inactive: -13.8%
14	CC12CCC(=O)N1C(C(=O)Nc1nc3ccc(Cl)cc3s1)CS2 (stereo unspecified)	inactive: -3.15%
15	CCC(=O)Nc1ccc(C(=O)CSc2nnc(-c3cccnc3)o2)cc1	inconclusive: -283%
16	O=C(/C=C/c1ccccc1)c1ccccc1	inconclusive: -51%
17	CCN(c1cccc(C)c1)S(=O)(=O)c1cc2c3c(c1)CCN3C(=O)CC2	inconclusive: -60.8%
